Data on 1 molecule can be found in ChEMBL document CHEMBL1154351, “Aspergillusol A, an alpha-glucosidase inhibitor from the marine-derived fungus Aspergillus aculeatus” (J Nat Prod, 2009).

A word on the IC50: it is the point on the concentration scale where inhibition reaches its midpoint.

The subject of the assay is A549. Kind of assay: Cytotoxicity against human A549 cells after 4 days by MTT assay. It is filed as functional, cell-based. As to conditions: A549, 96 h. Summed up: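 MTT read-out of viability in human HepG2, HuCCA-1 and A549 cancer cell lines, with doxorubicin as reference drug; IC50 values determined.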

`COc1cccc2c1C(=O)c1c(O)c3c(c(O)c1C2=O)C[C@@](O)(C(=O)CO)C[C@@H]3O[C@H]1C[C@H](N)[C@H](O)[C@H](C)O1` [DOXORUBICIN]: the IC50 was determined as 0.4 µM.
